Patent publication US20240309326A1, “Method of Isolating Adipose-Derived Cell Lines and Uses Thereof” (AGENCY FOR SCIENCE, TECHNOLOGY AND RESEARCH, priority 2021, published 2024)
At least one compound was matched to its structure with a doubt left.

Tested on: Ph9F-1x
Assay: Adipogenesis of fish adipose-derived cell line (AdipoRed / Hoechst 33342 staining)
Assay type: cell-based, Pangasianodon hypophthalmus
Settings: for adipogenesis induction efficiency: addition to adipogenesis induction composition (FIGS. 22 and 25); for percentage of matured adipocytes / total lipid content: different concentrations, final 3 days of adipogenesis
Method: Adipogenesis of adipose-derived cells were induced. The cells were resuspended at cell density of 100,000 cells/ml of complete growth medium and seeded at 100 μl/well into gelatin-coated 96-well flat-bottom black plates. The cells were incubated at 28° C. in a humidified atmosphere containing 5% CO2. […] After 3 and 6 days of adipogenic induction, the cells were induced with DMEM, 15% FBS, 0.1% fish serum, 300 U/ml of penicillin, 300 μg/mL of streptomycin, and adipogenic induction cocktail 2, containing 167 nM of insulin. Linoleic acid-oleic acid albumin (LAOA, Sigma-Aldrich), docosahexaenoic acid (DHA, Cayman Chemical), eicosapentaenoic acid (EPA, Cayman Chemical), oleic acid albumin (OAA, Sigma Aldrich), and linoleic acid albumin (LAA, Sigma Aldrich) can also be added to the adipogenic induction cocktail, if required. […] The cells were imaged using N-STORM/TIRF microscope and analysed using NIS-Element software.

**Q.** For CC/C=C\C/C=C\C/C=C\C/C=C\C/C=C\C/C=C\CCC(=O)O [DHA, docosahexaenoic acid], which adipogenesis induction efficiency is on record?
**A.** no adverse effects

**Q.** And the “percentage of matured adipocytes” value?
**A.** did not significantly affect

**Q.** And the total lipid content?
**A.** did not significantly affect

**Q.** Which results are given for CC/C=C\C/C=C\C/C=C\C/C=C\C/C=C\CCCC(=O)O [EPA, eicosapentaenoic acid]?
**A.** adipogenesis induction efficiency: no adverse effects; percentage of matured adipocytes: did not significantly affect; total lipid content: did not significantly affect
